Laboratory results: PubChem BioAssay AID493014 (National Center for Advancing Translational Sciences (NCATS), 2011)
Screen size: about 340,000 compounds; about 170 (0.05%) were called active. The shares of active, inactive and inconclusive entries below differ from those in the screen. The call rests on the fitted dose curve; in most records, active means well fitted inhibition curve with a large enough effect in the signal ratio, with a control signal flat (not every such curve was filed as active); inconclusive means small, poorly fitted or top-dose-only effect, or effect the other way, or a change in a side signal; inactive means flat fitted curve, though single readings scatter; the % refers to the signal ratio. Potencies of inconclusive entries are doubtful fits and often do not repeat.

Experiment: qHTS Assay to Find Inhibitors of Chronic Active B-Cell Receptor Signaling;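 on activity change, negative = inhibition: plate controls were basal doxycycline-induced cells for no effect and cells given 10 µM MG132 for full effect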
Conditions: ABC-DLBCL IkBa-CBG/CBR reporter, luminescence ratio (green luciferase fused to IkBa over red control in TMD8 lymphoma cells), 4 h; activity change, negative = inhibition: at 46.1 µM (top of the series) unless noted
Summary of the method: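 Cell line TMD8 (human ABC DLBCL), stably expressing tet-inducible CBG68-IkBa fusion and CBR; IMDM/0.5% FBS; cpd up to 46 uM; dox induction, 4 h, 37C/5% CO2; dual luminescence; green/red ratio; MG132 control.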
Potency means the concentration at half of the fitted maximal effect.

Row | Structure (SMILES) | Potency | activity change, negative = inhibition
1 | COC(=O)C(NC(=O)COc1ccccc1)(Nc1nc2c(s1)CCCC2)C(F)(F)F (stereo not drawn) | inconclusive: 23.1 µM [falling, single point] | –
2 | NC(=O)c1ccsc1NC(=O)COC(=O)Cc1ccccc1Cl | inconclusive: 18.4 µM [falling, partial curve] | –
3 | Cc1onc(-c2c(Cl)cccc2Cl)c1/C(N)=N/OC(=O)C(C)(C)C | – | inactive
4 | CCOc1ccc(NS(=O)(=O)c2ccc(NS(=O)(=O)c3cccs3)cc2)cc1 | – | inconclusive: -2.49%
5 | OCCN1CCN(c2ncnc3sc4c(c23)CCCC4)CC1 | – | inactive
6 | COc1cccc(C2=CC(c3ccc(OC)c(OC)c3OC)n3nnnc3N2)c1 (stereo not drawn) | inconclusive: 18.4 µM [falling, single point] | –
7 | Cc1cccc(N2CCN(C(=O)C3CCCCC3)CC2)c1C | – | inactive
8 | COc1ccc(C(=O)COC(=O)c2cccnc2Cl)c(OC)c1 | inconclusive: 15.8 µM [falling, single point] | –
9 | O=C(c1ccc(Cl)cc1)c1cnc(-c2ccc(Cl)cc2)s1 | – | inconclusive: -2.1%
10 | O=C(c1ccc(COc2ccccc2Br)cc1)N1CCCCCC1 | – | inconclusive: -19.2%
11 | O=C(NCC1(N2CCOCC2)CCCCC1)c1cccc(S(=O)(=O)N2CCc3ccccc3C2)c1 | – | inactive
12 | Cc1cc(C)c(C#N)c(SCc2ccccc2)n1 | – | inconclusive: 17.1%
13 | CC1(C)CC(=O)/C(=C\c2cccc([N+](=O)[O-])c2)C(C)(C)N1 | – | inconclusive: -3.75%
14 | Cc1cc(C)n2nc(SCCCC(=O)c3ccccc3)nc2n1 | – | inconclusive: 14.3%
15 | Cc1ccc(NC(=S)NC(NC(=O)c2ccco2)C(Cl)(Cl)Cl)cc1 (stereo not drawn) | – | inconclusive: -3.78%
16 | Cc1cnc(C(=O)Nc2ccccc2-c2ccc(C)o2)cn1 | – | inconclusive: 5.56%
17 | Cn1cccc1CC(=O)N/N=C/c1ccc(Cl)cc1 | inconclusive: 35.5 µM [falling, partial curve, poor fit] | –
18 | Cc1cc(Nc2ccc(Br)cc2)n2nc(C)nc2n1 | – | inconclusive: -13.6%
19 | O=C(COc1ccc2c(c1)CCC2)N1CCN(c2ccccc2F)CC1 | – | inconclusive: -1.21%
20 | COc1cc(C=O)ccc1OCCSc1ccc(C)cc1 | – | inconclusive: 10.5%
21 | CCN(CC)C(=O)CSc1ncnc2c1cnn2-c1ccccc1 | inconclusive: 1.3 µM [rising, partial curve] | –
22 | N#C/C(=C\c1ccc(Cl)cc1Cl)c1n[nH]c(Cn2cncn2)n1 | inconclusive: 14.6 µM [falling, partial curve] | –
23 | COc1nccnc1NS(=O)(=O)c1ccc(NCc2cc(Br)ccc2O)cc1 | – | inactive
24 | CSc1ccccc1NC(=O)CSCc1nc2sc(C)c(C)c2c(=O)[nH]1 | – | inactive
25 | CC(C)N(c1ccccc1)c1ccc(NC(=O)CCl)cc1 | – | inconclusive: -0.54%
26 | Cc1nn2c([nH]c(=O)c3ccccc32)c1C=O | – | inconclusive: 11.6%
27 | Cc1ccc(/C=C(\C#N)C(=O)Nc2ccccn2)o1 | inconclusive: 17.8 µM [falling, partial curve] | –

Row | Structure (SMILES) | Potency | activity change, negative = inhibition
28 | CCN(CC)CCNC(=O)c1ccc(NC(=O)c2cccc(S(=O)(=O)N3c4ccccc4CC3C)c2)cc1 (stereo not drawn) | inconclusive: 35.5 µM [falling, partial curve] | –
29 | Cc1c(Cl)cnc(NC(=O)COC(=O)[C@@H](NC(=O)c2ccco2)C(C)C)c1Cl | – | inconclusive: -2.4%
30 | COc1c(Cl)cccc1-c1cn2ccccc2n1 | – | inconclusive: 0.287%
31 | COc1cccc(NC(=O)C2CC(=O)N(Cc3ccc(C)cc3)C2)c1 (stereo not drawn) | – | inconclusive: -15%
32 | COc1ccc(NC(=S)N(Cc2ccc(C)cc2)Cc2ccccn2)cc1 | inconclusive: 35.5 µM [falling, single point] | –
33 | Cc1cccc(-n2c(C)cc(C=C3C(=O)c4ccccc4C3=O)c2C)c1 | – | inconclusive: 2.26%
34 | COc1ccc(OC)c(NC(=O)/C=C/c2ccc(S(=O)(=O)N3CCOCC3)cc2)c1 | – | inactive
35 | O=C(Cn1c(=O)[nH]c2ccsc2c1=O)N1CCN(c2ccc(F)cc2)CC1 | inconclusive: 2.91 µM [falling, partial curve, poor fit] | –
36 | CC(=O)N(O)CCCCCNC(=O)CCC(=O)N(O)CCCCCNC(=O)CCC(=O)N(O)CCCCCNC(=O)CCC(=O)O | – | inconclusive: 0.817%
37 | Cc1ccc(F)cc1NC(=O)C1CCN(c2cnccn2)CC1 | – | inconclusive: -0.634%
38 | COCCCNC(=O)/C(C#N)=C/c1c(N2CCN(C)CC2)nc2ccccn2c1=O | – | inactive
39 | COc1ccccc1CCNC(=O)CSc1nnc2ccc(-c3ccncc3)nn12 | – | inconclusive: 1.76%
40 | CCC(C(=O)Nc1ccsc1C(=O)OC)c1ccccc1 (stereo not drawn) | – | inconclusive: 13%
41 | CC(C)Sc1nnc(NC(=O)CCc2ccccc2)s1 | – | inconclusive: 9.06%
42 | NC(=S)c1cc2cc(Br)ccc2oc1=O | – | inactive
43 | CCC(CC)C(=O)c1c[nH]c(C(=O)NC2CCCCCC2)c1 | – | inconclusive: 0.0308%
44 | Nc1c(S(=O)(=O)c2cccs2)c2nc3ccccc3nc2n1Cc1cccs1 | – | inconclusive: -1.72%
45 | Fc1ccc(NC(=S)N/N=C/c2ccc(F)c(F)c2)c(F)c1 | inconclusive: 0.92 µM [falling, full curve, poor fit] | –
46 | O=C(Nc1ccc(OC(F)(F)F)cc1)c1cnccn1 | inconclusive: 15.8 µM [falling, single point] | –
47 | COCCNc1ncnc2c1cnn2-c1ccc(Cl)cc1 | inconclusive: 28.2 µM [falling, single point] | –
48 | C/C(=N\Nc1nc(C)cc(C)n1)c1ccc(C)o1 | – | inactive
49 | CCOC(=O)c1sc(NC(=O)c2ccc(C)o2)nc1C | inconclusive: 22.4 µM [falling, partial curve, poor fit] | –
50 | O=C(NCc1ccccc1)C1CCCC1 | – | inconclusive: 2.35%
51 | CCN(C(=O)CSc1ncn[nH]1)C1CCCCC1 | – | inactive
52 | CCc1ccc(S(=O)(=O)NCC2(N3CCOCC3)CCCCC2)cc1 | – | inactive
53 | CC(C)CC(NC(=O)c1cccs1)c1nnc(SCc2ccc(Cl)c(Cl)c2)n1C (stereo not drawn) | inconclusive: 18.4 µM [falling, partial curve, poor fit] | –

Quoted from above, twelve compounds:
Row | Structure (SMILES) | Potency | activity change, negative = inhibition
30 | COc1c(Cl)cccc1-c1cn2ccccc2n1 | – | inconclusive: 0.287%
31 | COc1cccc(NC(=O)C2CC(=O)N(Cc3ccc(C)cc3)C2)c1 (stereo not drawn) | – | inconclusive: -15%
32 | COc1ccc(NC(=S)N(Cc2ccc(C)cc2)Cc2ccccn2)cc1 | inconclusive: 35.5 µM [falling, single point] | –
33 | Cc1cccc(-n2c(C)cc(C=C3C(=O)c4ccccc4C3=O)c2C)c1 | – | inconclusive: 2.26%
34 | COc1ccc(OC)c(NC(=O)/C=C/c2ccc(S(=O)(=O)N3CCOCC3)cc2)c1 | – | inactive
35 | O=C(Cn1c(=O)[nH]c2ccsc2c1=O)N1CCN(c2ccc(F)cc2)CC1 | inconclusive: 2.91 µM [falling, partial curve, poor fit] | –
36 | CC(=O)N(O)CCCCCNC(=O)CCC(=O)N(O)CCCCCNC(=O)CCC(=O)N(O)CCCCCNC(=O)CCC(=O)O | – | inconclusive: 0.817%
37 | Cc1ccc(F)cc1NC(=O)C1CCN(c2cnccn2)CC1 | – | inconclusive: -0.634%
38 | COCCCNC(=O)/C(C#N)=C/c1c(N2CCN(C)CC2)nc2ccccn2c1=O | – | inactive
39 | COc1ccccc1CCNC(=O)CSc1nnc2ccc(-c3ccncc3)nn12 | – | inconclusive: 1.76%
40 | CCC(C(=O)Nc1ccsc1C(=O)OC)c1ccccc1 (stereo not drawn) | – | inconclusive: 13%
41 | CC(C)Sc1nnc(NC(=O)CCc2ccccc2)s1 | – | inconclusive: 9.06%
